This note sets out measurements from the supplement of paper PMC10849652.

Amino acid sequences for entries named in this document (tags omitted). A change or cut given only in a name is not applied to a line headed by its entry.
UniProt Q96EI5: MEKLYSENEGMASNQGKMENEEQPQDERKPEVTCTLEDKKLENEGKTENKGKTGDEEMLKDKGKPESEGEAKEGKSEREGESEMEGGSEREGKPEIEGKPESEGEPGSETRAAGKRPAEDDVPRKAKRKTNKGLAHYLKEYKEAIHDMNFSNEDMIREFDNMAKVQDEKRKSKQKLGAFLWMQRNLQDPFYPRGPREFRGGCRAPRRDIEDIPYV
UniProt Q6NUS6: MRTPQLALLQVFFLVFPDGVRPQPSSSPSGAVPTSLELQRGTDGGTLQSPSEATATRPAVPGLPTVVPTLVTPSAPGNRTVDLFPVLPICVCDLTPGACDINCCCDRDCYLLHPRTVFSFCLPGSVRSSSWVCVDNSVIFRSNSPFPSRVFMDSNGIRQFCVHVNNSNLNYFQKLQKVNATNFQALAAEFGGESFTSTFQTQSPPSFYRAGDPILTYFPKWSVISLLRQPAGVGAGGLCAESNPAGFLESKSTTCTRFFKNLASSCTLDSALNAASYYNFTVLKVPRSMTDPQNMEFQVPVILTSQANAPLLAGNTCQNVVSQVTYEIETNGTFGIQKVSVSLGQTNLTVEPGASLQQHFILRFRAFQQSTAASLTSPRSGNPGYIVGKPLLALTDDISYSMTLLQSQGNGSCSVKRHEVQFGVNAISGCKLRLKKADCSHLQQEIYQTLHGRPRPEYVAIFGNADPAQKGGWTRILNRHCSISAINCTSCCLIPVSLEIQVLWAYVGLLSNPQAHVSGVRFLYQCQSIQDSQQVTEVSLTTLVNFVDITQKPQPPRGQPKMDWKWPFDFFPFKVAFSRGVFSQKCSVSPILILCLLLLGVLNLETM
UniProt Q9NVR7: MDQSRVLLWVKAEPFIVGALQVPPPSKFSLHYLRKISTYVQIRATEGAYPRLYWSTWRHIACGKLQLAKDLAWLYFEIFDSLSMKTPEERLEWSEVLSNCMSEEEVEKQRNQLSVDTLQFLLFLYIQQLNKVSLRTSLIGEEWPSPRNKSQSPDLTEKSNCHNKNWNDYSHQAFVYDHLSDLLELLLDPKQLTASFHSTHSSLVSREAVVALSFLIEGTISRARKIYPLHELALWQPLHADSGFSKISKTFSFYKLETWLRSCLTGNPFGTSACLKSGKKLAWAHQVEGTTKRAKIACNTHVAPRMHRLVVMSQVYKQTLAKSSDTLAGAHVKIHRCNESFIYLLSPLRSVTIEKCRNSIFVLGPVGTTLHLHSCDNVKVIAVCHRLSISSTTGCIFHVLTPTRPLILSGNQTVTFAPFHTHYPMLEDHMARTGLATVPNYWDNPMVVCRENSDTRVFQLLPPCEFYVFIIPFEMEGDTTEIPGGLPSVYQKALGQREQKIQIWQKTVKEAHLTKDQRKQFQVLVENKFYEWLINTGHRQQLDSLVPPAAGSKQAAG
UniProt O95455: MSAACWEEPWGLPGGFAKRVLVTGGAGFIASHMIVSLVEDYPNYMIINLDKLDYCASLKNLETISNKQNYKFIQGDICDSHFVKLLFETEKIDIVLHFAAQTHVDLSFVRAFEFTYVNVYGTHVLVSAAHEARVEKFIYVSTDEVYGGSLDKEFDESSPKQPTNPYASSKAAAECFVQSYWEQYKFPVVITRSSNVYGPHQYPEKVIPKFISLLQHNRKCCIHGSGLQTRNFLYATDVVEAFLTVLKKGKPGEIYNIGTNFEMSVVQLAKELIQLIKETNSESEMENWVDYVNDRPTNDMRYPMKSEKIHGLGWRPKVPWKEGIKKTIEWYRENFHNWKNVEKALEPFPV
UniProt P28347, whole entry, looked up: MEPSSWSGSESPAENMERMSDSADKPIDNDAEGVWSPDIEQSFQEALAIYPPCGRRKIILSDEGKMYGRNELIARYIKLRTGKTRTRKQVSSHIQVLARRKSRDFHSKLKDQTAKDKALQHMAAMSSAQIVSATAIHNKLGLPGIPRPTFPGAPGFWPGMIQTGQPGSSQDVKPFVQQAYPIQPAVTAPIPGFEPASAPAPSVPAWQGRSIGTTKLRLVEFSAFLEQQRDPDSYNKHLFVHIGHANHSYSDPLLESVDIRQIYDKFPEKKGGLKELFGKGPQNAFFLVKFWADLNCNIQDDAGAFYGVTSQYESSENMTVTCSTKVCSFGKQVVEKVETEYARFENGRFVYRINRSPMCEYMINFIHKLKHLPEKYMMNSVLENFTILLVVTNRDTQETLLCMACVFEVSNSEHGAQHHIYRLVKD
UniProt Q7Z6L1: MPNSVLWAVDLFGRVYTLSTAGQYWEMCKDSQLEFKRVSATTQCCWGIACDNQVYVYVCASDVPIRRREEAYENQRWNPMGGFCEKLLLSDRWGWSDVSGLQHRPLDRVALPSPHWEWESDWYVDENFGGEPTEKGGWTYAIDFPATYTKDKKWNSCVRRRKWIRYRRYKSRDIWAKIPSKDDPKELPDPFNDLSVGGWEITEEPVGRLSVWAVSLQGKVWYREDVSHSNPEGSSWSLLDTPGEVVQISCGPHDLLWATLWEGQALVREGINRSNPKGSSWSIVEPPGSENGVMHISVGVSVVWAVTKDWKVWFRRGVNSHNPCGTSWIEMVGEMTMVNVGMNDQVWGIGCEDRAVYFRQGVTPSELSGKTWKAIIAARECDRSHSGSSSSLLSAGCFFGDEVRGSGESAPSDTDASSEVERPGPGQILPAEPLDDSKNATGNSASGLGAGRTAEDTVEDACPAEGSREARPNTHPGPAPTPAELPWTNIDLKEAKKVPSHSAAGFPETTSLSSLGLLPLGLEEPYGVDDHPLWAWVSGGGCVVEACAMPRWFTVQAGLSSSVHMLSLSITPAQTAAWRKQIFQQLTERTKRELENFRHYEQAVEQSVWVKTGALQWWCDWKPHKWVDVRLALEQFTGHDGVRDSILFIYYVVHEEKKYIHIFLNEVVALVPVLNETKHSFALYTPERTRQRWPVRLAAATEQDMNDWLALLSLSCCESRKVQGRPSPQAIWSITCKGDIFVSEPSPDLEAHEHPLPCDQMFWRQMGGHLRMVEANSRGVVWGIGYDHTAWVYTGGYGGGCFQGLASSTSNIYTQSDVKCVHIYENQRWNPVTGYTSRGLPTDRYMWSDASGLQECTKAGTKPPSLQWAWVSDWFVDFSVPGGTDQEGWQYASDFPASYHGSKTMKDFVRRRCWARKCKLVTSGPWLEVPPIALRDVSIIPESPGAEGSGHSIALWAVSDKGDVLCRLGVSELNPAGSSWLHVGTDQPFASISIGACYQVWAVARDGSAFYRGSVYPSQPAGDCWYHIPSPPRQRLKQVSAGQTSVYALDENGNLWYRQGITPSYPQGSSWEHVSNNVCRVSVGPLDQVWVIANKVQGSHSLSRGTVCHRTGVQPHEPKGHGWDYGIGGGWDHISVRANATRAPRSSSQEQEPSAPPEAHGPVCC
UniProt Q9BXI6: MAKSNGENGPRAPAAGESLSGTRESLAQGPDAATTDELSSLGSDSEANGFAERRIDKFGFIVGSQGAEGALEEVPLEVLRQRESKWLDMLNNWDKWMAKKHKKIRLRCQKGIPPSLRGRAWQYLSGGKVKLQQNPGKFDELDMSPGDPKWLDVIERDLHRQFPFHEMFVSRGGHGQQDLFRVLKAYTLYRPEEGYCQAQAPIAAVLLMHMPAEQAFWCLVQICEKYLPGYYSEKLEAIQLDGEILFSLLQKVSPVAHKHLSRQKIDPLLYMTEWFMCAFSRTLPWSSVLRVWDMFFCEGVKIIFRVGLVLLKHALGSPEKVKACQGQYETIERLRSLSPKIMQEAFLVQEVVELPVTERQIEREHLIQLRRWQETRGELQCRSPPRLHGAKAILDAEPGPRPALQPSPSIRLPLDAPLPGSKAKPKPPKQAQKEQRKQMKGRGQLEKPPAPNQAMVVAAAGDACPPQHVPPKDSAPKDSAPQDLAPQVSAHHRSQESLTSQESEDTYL
UniProt Q8N9U0: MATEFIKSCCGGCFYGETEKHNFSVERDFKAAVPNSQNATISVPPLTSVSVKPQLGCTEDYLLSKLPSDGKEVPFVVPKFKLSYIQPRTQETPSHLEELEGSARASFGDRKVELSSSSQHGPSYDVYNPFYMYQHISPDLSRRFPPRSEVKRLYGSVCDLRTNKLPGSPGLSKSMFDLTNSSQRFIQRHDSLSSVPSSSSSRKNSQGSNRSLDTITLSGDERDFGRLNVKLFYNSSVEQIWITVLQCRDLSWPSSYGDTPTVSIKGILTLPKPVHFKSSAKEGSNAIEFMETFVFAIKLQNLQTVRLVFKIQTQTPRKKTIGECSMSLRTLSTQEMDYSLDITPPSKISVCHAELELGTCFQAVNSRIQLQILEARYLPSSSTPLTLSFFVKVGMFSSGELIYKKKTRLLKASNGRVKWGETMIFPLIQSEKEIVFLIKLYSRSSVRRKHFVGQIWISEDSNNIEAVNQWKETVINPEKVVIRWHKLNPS
UniProt Q96MN5: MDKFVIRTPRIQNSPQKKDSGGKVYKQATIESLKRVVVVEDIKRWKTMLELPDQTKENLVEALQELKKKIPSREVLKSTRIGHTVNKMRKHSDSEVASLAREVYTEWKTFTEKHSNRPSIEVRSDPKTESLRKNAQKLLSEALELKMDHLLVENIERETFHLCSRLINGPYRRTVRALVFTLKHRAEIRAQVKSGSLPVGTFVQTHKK
UniProt Q9UGU0: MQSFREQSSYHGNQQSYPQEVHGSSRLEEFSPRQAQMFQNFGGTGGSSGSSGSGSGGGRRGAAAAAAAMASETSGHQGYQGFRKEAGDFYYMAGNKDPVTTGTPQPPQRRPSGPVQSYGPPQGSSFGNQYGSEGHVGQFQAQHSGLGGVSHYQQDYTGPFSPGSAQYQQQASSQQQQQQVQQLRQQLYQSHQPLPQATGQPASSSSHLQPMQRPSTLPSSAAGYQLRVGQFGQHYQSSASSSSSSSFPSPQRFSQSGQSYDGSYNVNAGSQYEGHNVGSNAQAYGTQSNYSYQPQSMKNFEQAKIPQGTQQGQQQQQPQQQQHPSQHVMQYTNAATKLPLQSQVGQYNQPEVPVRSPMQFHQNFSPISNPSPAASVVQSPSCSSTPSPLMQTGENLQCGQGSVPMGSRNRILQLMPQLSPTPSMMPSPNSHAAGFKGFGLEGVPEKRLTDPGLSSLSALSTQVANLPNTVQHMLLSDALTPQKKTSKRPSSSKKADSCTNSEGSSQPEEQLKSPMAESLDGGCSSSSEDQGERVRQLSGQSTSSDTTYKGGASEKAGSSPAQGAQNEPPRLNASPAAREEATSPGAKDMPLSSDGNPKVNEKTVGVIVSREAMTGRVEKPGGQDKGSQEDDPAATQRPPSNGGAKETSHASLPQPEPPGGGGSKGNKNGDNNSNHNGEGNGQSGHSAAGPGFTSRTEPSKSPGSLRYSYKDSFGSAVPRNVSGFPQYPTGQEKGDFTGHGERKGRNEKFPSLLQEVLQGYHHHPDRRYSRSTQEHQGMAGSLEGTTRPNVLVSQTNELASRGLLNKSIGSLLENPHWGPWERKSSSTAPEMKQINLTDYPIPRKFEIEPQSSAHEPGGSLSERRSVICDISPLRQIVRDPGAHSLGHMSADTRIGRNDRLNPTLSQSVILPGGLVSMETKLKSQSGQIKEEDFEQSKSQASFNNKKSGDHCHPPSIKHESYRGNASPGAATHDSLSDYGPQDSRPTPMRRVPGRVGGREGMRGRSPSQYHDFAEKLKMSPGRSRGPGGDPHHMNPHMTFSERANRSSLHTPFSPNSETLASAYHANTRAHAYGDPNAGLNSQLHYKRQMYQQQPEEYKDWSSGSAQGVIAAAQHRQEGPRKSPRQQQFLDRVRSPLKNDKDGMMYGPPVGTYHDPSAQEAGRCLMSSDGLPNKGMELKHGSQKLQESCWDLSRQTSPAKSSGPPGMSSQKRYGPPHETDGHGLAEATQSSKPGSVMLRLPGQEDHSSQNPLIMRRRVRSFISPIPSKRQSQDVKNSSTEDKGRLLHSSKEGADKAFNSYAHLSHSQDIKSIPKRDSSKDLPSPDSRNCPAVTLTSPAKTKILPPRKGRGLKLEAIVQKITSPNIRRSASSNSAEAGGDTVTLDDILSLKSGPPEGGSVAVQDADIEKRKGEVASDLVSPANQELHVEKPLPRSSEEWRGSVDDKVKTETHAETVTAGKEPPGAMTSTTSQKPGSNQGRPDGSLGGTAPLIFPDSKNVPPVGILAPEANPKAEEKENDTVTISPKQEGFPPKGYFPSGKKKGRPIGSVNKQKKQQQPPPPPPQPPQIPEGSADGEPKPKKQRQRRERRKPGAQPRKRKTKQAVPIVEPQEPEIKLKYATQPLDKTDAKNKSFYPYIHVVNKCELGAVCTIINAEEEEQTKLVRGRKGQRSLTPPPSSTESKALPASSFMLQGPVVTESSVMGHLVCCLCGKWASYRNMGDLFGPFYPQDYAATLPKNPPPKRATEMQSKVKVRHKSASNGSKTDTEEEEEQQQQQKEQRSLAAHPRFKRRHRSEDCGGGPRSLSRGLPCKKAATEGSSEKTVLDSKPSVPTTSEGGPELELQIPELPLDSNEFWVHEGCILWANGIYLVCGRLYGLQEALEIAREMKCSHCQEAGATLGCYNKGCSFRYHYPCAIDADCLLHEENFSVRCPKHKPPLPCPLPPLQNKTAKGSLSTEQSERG

Assay in all cases: log2 fold change, soluble protein after heating vs DMSO (PISA); higher = thermal stabilisation; K562 lysate, 10 uM; active = over 0.2 and 3.5 SD of the protein, either way, in both replicates (recomputed)
Compound in assay [1]: CN1CC[C@H](c2c(O)cc(O)c3c(=O)cc(-c4ccccc4Cl)oc23)[C@H](O)C1 [alvocidib]
The gist of the method:
(§1)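 K562 pellets were dounce-homogenised in PBS pH 7.4 with 1 mM MgCl2, and the crude extract at 1 mg/mL protein was treated with 10 μM compound for 30 min. Aliquots were heated for 3 min across 48°C-58°C, pooled, and brought to 0.5% NP-40 at 4°C; soluble protein was the supernatant after 21,000xg for 90 min. Soluble protein was quantified by TMTpro 16plex LC-MS/MS with channel sums equalised, and reported as log2 fold change in thermal stability against DMSO controls, with values from duplicates.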

Compound in assay [2]: CNC(=O)c1ccc(Nc2ncc(C(F)(F)F)c(NCc3nccnc3N(C)S(C)(=O)=O)n2)cc1 [defactinib]
The gist of the method: as §1

Compound in assay [3]: CNc1nc(-c2ccc3c(N)n[nH]c3c2)cc(N2C[C@@H](C(=O)NC3CCCCC3)CC[C@H]2C)n1
An outline of the steps:
as §1

Compound in assay [4]: COC(=O)N[C@@H](C)CNc1nccc(-c2cn(C(C)C)nc2-c2cc(Cl)cc(NS(C)(=O)=O)c2F)n1 [encorafenib]
The gist of the method: as §1

Compound in assay [5]: COC(=O)[C@H](CCSC)NC(=O)C1=C(C=C(C=C1)NC[C@H](CS)N)C2=CC=CC=C2
The gist of the method: as §1

Compound in assay [6]: COc1cc2nc(-c3cc(F)ccc3O)nc(N[C@@H]3CNC[C@H]3C(C)(C)O)c2cc1OC
The gist of the method:
as §1

Compound in assay [7]: CS(=O)(=O)CCNCc1ccc(-c2ccc3ncnc(Nc4ccc(OCc5cccc(F)c5)c(Cl)c4)c3c2)o1 [lapatinib]
An outline of the steps: as §1

Compound in assay [8]: CS(=O)(=O)N1CCN(Cc2cc3nc(-c4cccc5[nH]ncc45)nc(N4CCOCC4)c3s2)CC1 [pictilisib]
An outline of the steps:
as §1

Compound in assay [9]: C[C@@H](Oc1cc(-c2cnn(C3CCNCC3)c2)cnc1N)c1c(Cl)ccc(F)c1Cl [crizotinib]
The gist of the method:
as §1

Compound in assay [10]: C[C@H](C1=CC=C(C=C1)C(=O)NC2=C3C=CNC3=NC=C2)N
The gist of the method:
as §1

Compound in assay [11]: C[C@H](Nc1ncnc2nc[nH]c12)c1cc2cccc(Cl)c2c(=O)n1-c1ccccc1 [duvelisib]
An outline of the steps: as §1

Compound in assay [12]: Cc1cc(Nc2cc(CN3CCOCC3)c3nc(C)c(Cc4ccc(Cl)cc4F)n3n2)n[nH]1 [gandotinib]
An outline of the steps: as §1

Compound in assay [13]: Cc1cc(Nc2cc(N3CCN(C)CC3)nc(Sc3ccc(NC(=O)C4CC4)cc3)n2)n[nH]1 [tozasertib]
The gist of the method:
as §1

Compound in assay [14]: Cc1ccc(-n2nc(C(C)(C)C)cc2NC(=O)Nc2ccc(OCCN3CCOCC3)c3ccccc23)cc1 [doramapimod]
The gist of the method:
as §1

Compound in assay [15]: Cc1ccc(NC(=O)c2ccc(CN3CC[C@H](N(C)C)C3)c(C(F)(F)F)c2)cc1Nc1nccc(-c2cncnc2)n1 [bafetinib]
The gist of the method: as §1

Compound in assay [16]: Cc1cccc(CC(=O)N2CCc3c2ccc(-c2cn(C)c4ncnc(N)c24)c3F)n1
An outline of the steps:
as §1

Compound in assay [17]: COc1cc(Nc2ncc3c(n2)-c2ccc(Cl)cc2C(c2c(F)cccc2OC)=NC3)ccc1C(=O)O [alisertib]
The gist of the method: as §1

Compound in assay [18]: COc1cc2ncnc(Nc3ccc(F)c(Cl)c3)c2cc1OCCCN1CCOCC1 [gefitinib]
The gist of the method: as §1

Compound in assay [19]: CN1CCc2c(c3ccccc3n2Cc2ccc(C(=O)NO)cc2)C1 [Tubastatin A]
An outline of the steps:
as §1

Compound in assay [20]: CNC(=O)C1=CC=CC=C1NC2=NC(=NC=C2Cl)NC3=C(C=C(C=C3)N4CCOCC4)OC
The gist of the method:
as §1

Some of the results follow.

Consider TCEAL4 isoform 2 (UniProt Q96EI5), for which the log2 fold change in [1] was inactive: -0.108; in assay [2], inactive: 0; in [3] it was inactive: -0.027; in [4] it was inactive: 0.107; in [5], inactive: -0.024; in assay [6], inactive: 0.044. In addition, the log2 fold change was inactive: 0.074 in assay [7]; inactive: -0.071 in assay [8]; inactive: -0.048 in assay [9]; inactive: 0.01 in assay [10]; inactive: 0.018 in assay [11]; inactive: 0.019 in assay [12]. In addition, the log2 fold change is inactive: 0.028 in assay [13], inactive: 0.036 in assay [14], inactive: 0.006 in assay [15] and inactive: 0.079 in assay [16].

Consider TCF3 (UniProt X6REB3), for which the log2 fold change was inactive: -0.168 in assay [1]; inactive: -0.149 in [2]; inactive: -0.081 in assay [10]; inactive: 0.269 in assay [12]; inactive: 0.105 in [16].

Turning to TCTN3 (UniProt Q6NUS6), the log2 fold change was inactive: 0.025 in [1]; inactive: -0.072 in assay [17]; inactive: -0.003 in assay [18]; inactive: 0.048 in [9]; inactive: -0.103 in assay [10]; inactive: -0.077 in [12]. For the same target, the log2 fold change in assay [14] is inactive: -0.119; in [16], inactive: 0.106.

Take TBCCD1 (UniProt Q9NVR7): the log2 fold change in assay [1] is inactive: -0.017; in [19] it was inactive: 0.564; in assay [20] it was inactive: -0.07; in assay [10], inactive: -0.155; in assay [12], inactive: -0.022; in assay [16] it was inactive: 0.068.

Consider TCF4 (UniProt P15884), for which the log2 fold change in assay [1] was inactive: 0.005; in assay [19], inactive: -0.282; in assay [3], inactive: -0.009; in [4] it was inactive: 0.17; in assay [5], inactive: -0.099; in [17] it was inactive: 0.078. In addition, the log2 fold change in [6] was inactive: 0.212; in [18], inactive: 0.06; in assay [7], inactive: -0.212; in assay [9] it was inactive: 0.128; in [10] it was inactive: 0.039; in [11] it was inactive: 0.039. Besides, the log2 fold change is inactive: -0.022 in [12], inactive: -0.044 in assay [13], inactive: -0.099 in assay [14] and inactive: 0 in assay [16].

As to TGDS (UniProt O95455), the log2 fold change in [1] is inactive: -0.056; in assay [17] it was inactive: 0.044; in assay [6], inactive: 0.078; in assay [18], inactive: 0.169; in assay [7], inactive: -0.055; in assay [8] it was inactive: 0.169. The log2 fold change was inactive: -0.063 in assay [9]; inactive: -0.028 in [10]; inactive: 0.021 in assay [12]; inactive: 0.012 in assay [14]; inactive: -0.056 in [15]; inactive: 0.138 in [16].

As to TEAD1 (UniProt P28347), the log2 fold change was inactive: 0.092 in assay [1]; inactive: 0.001 in [20]; inactive: -0.072 in assay [2]; inactive: 0.27 in assay [3]; inactive: 0 in assay [4]; inactive: -0.151 in [5]. Also, the log2 fold change in assay [8] was inactive: 0.02; in assay [10], inactive: 0.057; in assay [11] it was inactive: 0.27; in assay [12], inactive: -0.261; in assay [13], inactive: -0.077; in assay [15], inactive: 0.129. The log2 fold change in [16] was inactive: -0.023.

For the target TECPR1 isoform 4 (UniProt Q7Z6L1), the log2 fold change in [1] was inactive: -0.071; in assay [20] it was inactive: 0.107; in [3], inactive: -0.049; in assay [6], inactive: -0.264; in assay [7] it was inactive: -0.012; in [8], inactive: -0.56. The log2 fold change in assay [10] was inactive: -0.161; in assay [11], inactive: 0.007; in assay [12] it was inactive: 0.058; in assay [15], inactive: -0.15; in assay [16], inactive: 0.097.

As for TBXA2R (UniProt P21731), the log2 fold change was inactive: -0.046 in [1]; inactive: 0.01 in assay [19]; inactive: 0.013 in [20]; inactive: 0.029 in [8]; inactive: -0.043 in [9]; inactive: -0.042 in assay [10]. Further, the log2 fold change in [12] was inactive: -0.177; in [14], inactive: -0.024; in assay [15], inactive: 0.073; in assay [16] it was inactive: 0.115.

For the target TBC1D10A (UniProt Q9BXI6), the log2 fold change in assay [1] is inactive: -0.044; in [19], inactive: -0.034; in assay [20], inactive: 0.051; in assay [3] it was inactive: -0.099; in assay [17], inactive: -0.037; in assay [6] it was inactive: 0.032. The log2 fold change in assay [18] is inactive: 0.029; in assay [7], inactive: -0.007; in assay [8], inactive: -0.024; in assay [9] it was inactive: 0.045; in [10] it was inactive: -0.072; in assay [11], inactive: 0.031. For the same target, the log2 fold change in [12] is inactive: -0.096; in assay [14], inactive: -0.113; in assay [15] it was inactive: -0.118; in assay [16] it was inactive: 0.01.

For TC2N (UniProt Q8N9U0), the log2 fold change in [1] was inactive: -0.063; in assay [2] it was inactive: -0.006; in assay [4], inactive: -0.006; in [5] it was inactive: -0.069; in assay [10] it was inactive: 0.099; in assay [12] it was inactive: -0.159. In addition, the log2 fold change is inactive: 0.173 in assay [13] and inactive: -0.048 in assay [16].

With TCEANC2 (UniProt Q96MN5), the log2 fold change in assay [19] is inactive: -0.004; in assay [20] it was inactive: 0.023; in assay [2], inactive: -0.029; in assay [3] it was inactive: 0.029; in [4], inactive: 0.105; in assay [5] it was inactive: 0.031. Also, the log2 fold change in assay [17] was inactive: -0.17; in assay [18], inactive: -0.293; in assay [8] it was inactive: -0.046; in assay [11], inactive: -0.073; in assay [13], inactive: -0.063; in [15], inactive: -0.055.

Take TCF20 (UniProt Q9UGU0): the log2 fold change was inactive: -0.017 in assay [1]; inactive: 0.01 in assay [20]; active: 0.615 in assay [3]; inactive: 0.167 in assay [6]; inactive: -0.049 in assay [7]; inactive: -0.034 in assay [8]. Further, the log2 fold change in assay [9] was inactive: 0.019; in [10] it was inactive: 0.011; in assay [11], inactive: 0.094; in assay [12], inactive: 0.108; in [14] it was inactive: -0.032; in assay [15], inactive: -0.001. For the same target, the log2 fold change in assay [16] was inactive: -0.005.
